Where two headings read alike, the source gives them in different places. No constants are given. Whether binding was seen depends on the method and setting.
Tests used:
[1] = molecular target: T1, Arabidopsis thaliana NPL4 (Arabidopsis thaliana) (UniProt O82264); experiment: MST
T1 sequence (chain, Alexa-488 dye label in the MST experiments only): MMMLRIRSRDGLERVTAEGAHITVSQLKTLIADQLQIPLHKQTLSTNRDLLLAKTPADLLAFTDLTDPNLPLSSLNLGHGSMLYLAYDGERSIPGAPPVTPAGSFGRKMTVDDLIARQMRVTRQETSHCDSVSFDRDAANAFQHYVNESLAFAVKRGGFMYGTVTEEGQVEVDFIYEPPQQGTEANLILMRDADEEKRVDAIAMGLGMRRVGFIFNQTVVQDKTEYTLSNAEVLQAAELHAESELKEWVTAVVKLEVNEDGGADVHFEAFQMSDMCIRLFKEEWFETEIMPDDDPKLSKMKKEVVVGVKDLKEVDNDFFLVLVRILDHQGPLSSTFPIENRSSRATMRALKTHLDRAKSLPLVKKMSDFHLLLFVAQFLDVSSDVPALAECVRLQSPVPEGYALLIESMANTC

[2] = molecular target: T1, Arabidopsis thaliana NPL4 (Arabidopsis thaliana); experiment: MST; remark: listed apart in the source

- binding [1]: no binding (tested: Kd > 200 µM)
- binding [2]: no binding (tested: Kd > 200 µM)
Substance: Arabidopsis thaliana UFD1A

— doi:10.1101/2025.03.28.645892
